Publication PMC10564737, “Structure-based design of a phosphotyrosine-masked covalent ligand targeting the E3 ligase SOCS2” (Nature Communications, 2023)
“And” between values parts separate entries of the source, which are not always exact repeats. Identical values can stand only once. The source gives many values for each of these; only a part stands here.

Chains of the proteins cited; added tags and fusions are not shown. Residues count along the entry.
UniProt O14508, 32-198: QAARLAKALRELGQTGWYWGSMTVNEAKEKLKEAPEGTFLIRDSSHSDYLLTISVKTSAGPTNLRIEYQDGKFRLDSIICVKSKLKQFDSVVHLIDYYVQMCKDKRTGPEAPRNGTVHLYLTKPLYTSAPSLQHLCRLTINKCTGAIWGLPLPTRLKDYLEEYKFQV

Target: T1, SBC2 (Homo sapiens, UniProt O14508)
T1 construct: SOCS2 (amino acids 32–198); His6 (N, cleaved yes); made in house; host or cells: E. coli BL21(DE3)
Assay: Covalent fluorescence polarization (FP) probe displacement assay
Type: binding
Excerpt: With the specific covalent modification of Cys111 established, we decided to fully characterize MN551 as a covalent SOCS2 inhibitor. […] (Fig. 2g, h, Supplementary Fig. 9). Due to the covalent nature of the competing inhibitor, a time-dependent reduction in the fraction of protein-bound probe is observed. […] This value illustrates reasonable specificity for a covalent inhibitor, with nonetheless scope for future optimization. In addition to characterizing the kinetic covalency parameters, we have also assessed the stability of the MN551 by monitoring its reactivity (half-life >70 min) with reduced glutathione (GSH) (Supplementary Fig. 10)[35].
To monitor the SBC2-ligand binding kinetics we designed a fluorescein-labeled small-molecule probe - compound 26. The fluorescence polarization (anisotropy) of a threefold serial dilution of 50 µM SBC2 in 10 nM of the probe in 100 mM HEPES pH 7.5, 50 mM NaCl, 0.5 mM TCEP, 2% DMSO was measured to determine the KL (Supplementary Fig. 9A) (BMG Labtech PHERAstar – firmware v1.33). Protein titration and the curves were fitted using GraphPad Prism 9, using one-site fitting models to determine the probe binding constant, KL. Samples were run in triplicate in 384 well plates, using a total volume per well of 16 μL. The bound fraction of the probe is measure using the equation:1 Fb=Af−A/Af−Ab Where,
A time-dependent reduction in probe anisotropy were measured for a 2-fold serial dilution of […] compound MN551 in 10 nM probe +300 μM SBC2. To determine the initial reversible binding affinity, the initial bound fraction of the probe at time = 0, Fbo (the y-intercept in Fb v/s Time plot, Supplementary Fig. 9B) was plotted against MN551 concentration, and the obtained IC50 is then converted to Ki (Supplementary Fig. 9C)[17]. The slope from Fb versus time graph when divided by Fbo gives rate of covalency, kobs. A plot of kobs v/s MN551 concentration using Michaelis–Menten model of GraphPad Prism 9, provides the parameters kinact (maximum potential rate of inactivation) and KI (concentration of MN551 at which kobs = kinact/2) (Supplementary Fig. 9D, E).
The observed first-order rate constant, kobs is related to KI and kinact by the equation:2 kobs=kinactI/KI+I
At [I]«[KI] the above equation is converted to3 […]
The slope from the plot of kobs against concentration of MN551 gives us the covalent efficiency parameter kinact/KI (Supp Fig. 9F)[30],[33].

[1] = MN551 195.312 nM; Cycle 6 (25 min)
[2] = MN551 195.312 nM; Cycle 7 (30 min)
[3] = MN551 195.312 nM; Cycle 8 (35 min)
[4] = MN551 195.312 nM; Cycle 9 (40 min)
[5] = MN551 195.312 nM; Cycle 10 (45 min)
[6] = MN551 195.312 nM; Cycle 11 (50 min)
[7] = MN551 195.312 nM; Cycle 12 (55 min); n=1
[8] = MN551 195.312 nM; Cycle 13 (60 min); n=1
[9] = MN551 195.312 nM; Cycle 14 (65 min); n=1
[10] = MN551 195.312 nM; Cycle 15 (70 min); n=1
[11] = MN551 195.312 nM; Cycle 16 (75 min); n=1
[12] = MN551 260.308 nM, Cycle 8 (35 min)
[13] = MN551 260.308 nM, Cycle 9 (40 min)
[14] = MN551 260.308 nM, Cycle 10 (45 min)
[15] = MN551 260.308 nM, Cycle 11 (50 min)
[16] = MN551 260.308 nM, Cycle 16 (75 min), n=1
[17] = MN551 260.308 nM, Cycle 17 (80 min), n=1
[18] = MN551 260.308 nM, Cycle 18 (85 min), n=1
[19] = MN551 260.308 nM; Cycle 7 (30 min)
[20] = MN551 260.308 nM; Cycle 8 (35 min)
[21] = MN551 260.308 nM; Cycle 9 (40 min)
[22] = MN551 260.308 nM; Cycle 10 (45 min)
[23] = MN551 260.308 nM; Cycle 11 (50 min)
[24] = MN551 260.308 nM; Cycle 12 (55 min); n=1
[25] = MN551 260.308 nM; Cycle 13 (60 min); n=1
[26] = MN551 260.308 nM; Cycle 14 (65 min); n=1
[27] = MN551 260.308 nM; Cycle 15 (70 min); n=1

Structure (SMILES): O=C(CCl)Nc1cccc(CNC(=O)[C@H](Cc2ccc(OP(=O)(O)O)cc2)NC(=O)Cc2ccc(F)cc2)c1 [MN551]
- Anisotropy (MN551 195.312 nM, Cycle 18 (85 min), n=1): 266.8 and 267.2 and 267.6
- Fb, fraction bound (MN551 195.312 nM; Cycle 3 (10 min)): 0.955 and 1 and 0.99
- Fb, fraction bound (MN551 195.312 nM; Cycle 4 (15 min)): 0.9705 and 0.9535 and 0.9653
- Fb, fraction bound (MN551 195.312 nM; Cycle 5 (20 min)): 0.9351 and 1.007 and 0.9807
- Anisotropy data 485,520,520 [1]: 274.9 and 279 and 277
- Fb [1]: 0.9521 and 0.9704 and 0.949
- Fb, fraction bound [1]: 0.9546 and 1.015 and 0.9671
- Anisotropy data 485,520,520 [2]: 275.1 and 274.5 and 277.1
- Fb [2]: 0.999 and 0.9504 and 0.9981
- Fb, fraction bound [2]: 0.9641 and 0.9963 and 1.003
- Anisotropy [3]: 277 and 278 and 277.1
- Anisotropy data 485,520,520 [3]: 274.5 and 272.6 and 275.9
- Fb [3]: 0.9747 and 0.9241 and 0.9792 and 0.976 and 0.9758 and 0.9765
- Anisotropy [4]: 275.8 and 276.7 and 274.6
- Anisotropy data 485,520,520 [4]: 271.1 and 271.6 and 274.3
- Fb [4]: 0.9651 and 0.9279 and 0.97 and 0.9519 and 0.9792 and 0.9643
- Anisotropy [5]: 275.8 and 274.1 and 274.4
- Anisotropy data 485,520,520 [5]: 272.7 and 272.1 and 273.8
- Fb [5]: 0.998 and 0.9437 and 0.9769 and 0.9616 and 0.9688 and 0.9656
- Anisotropy [6]: 275.6 and 275.2 and 274.2
- Anisotropy based on Raw Data (485) [6]: 274.6 and 272.8 and 268.7
- Anisotropy (MN551 195.312 nM; Cycle 11 (50 min); n=1): 270.5 and 271.3 and 274.6
- Anisotropy [7]: 268.5 and 272.6 and 271
- Anisotropy based on Raw Data (485) [7]: 275.2 and 269.4 and 267.2
- Anisotropy [8]: 267.5 and 266.1 and 267.7
- Anisotropy based on Raw Data (485) [8]: 274 and 271.2 and 267.3
- Anisotropy [9]: 267.3 and 269.3 and 268.4
- Anisotropy based on Raw Data (485) [9]: 271.8 and 269.5 and 265.4
- Anisotropy [10]: 267.5 and 266.8 and 268.2
- Anisotropy based on Raw Data (485) [10]: 273.4 and 268.3 and 266.3
- Anisotropy [11]: 265 and 265.7 and 266.3
- Anisotropy based on Raw Data (485) [11]: 269.5 and 268.6 and 267.2
- Anisotropy data 485,520,520 (MN551 195.312 nM; Cycle 19 (90 min); n=1): 265.7 and 268.5 and 265.9
- Anisotropy data 485,520,520 (MN551 195.312 nM; Cycle 20 (95 min); n=1): 265.8 and 266.4 and 264.8
- Fb (MN551 260.308 nM, Cycle 7 (30 min)): 0.9423 and 0.7798 and 0.7969
- Anisotropy based on Raw Data (485) [12]: 269 and 265.5 and 267.4
- Fb [12]: 0.7982 and 0.7952 and 0.7751
- Anisotropy based on Raw Data (485) [13]: 267.7 and 265.2 and 261.8
- Fb [13]: 0.8802 and 0.7701 and 0.7652
- Anisotropy based on Raw Data (485) [14]: 265.7 and 264.9 and 261.2
- Fb [14]: 0.8219 and 0.7745 and 0.7789
- Anisotropy based on Raw Data (485) [15]: 266.1 and 263.8 and 262.3
- Fb [15]: 0.9343 and 0.7485 and 0.7812
- Anisotropy (MN551 260.308 nM, Cycle 13 (60 min), n=1): 259.4 and 257.8 and 259.5
- Anisotropy (MN551 260.308 nM, Cycle 14 (65 min), n=1): 260.3 and 257.8 and 257.1
- Anisotropy (MN551 260.308 nM, Cycle 15 (70 min), n=1): 258.9 and 256.9 and 257.3
- Anisotropy [16]: 258.7 and 255.2 and 256.6
- Normalised anisotropy (0 nM MN551 = 1, free probe = 0) [16]: 0.8414 and 0.8288 and 0.8384
- Anisotropy [17]: 257.6 and 256.5 and 255.1
- Anisotropy based on Raw Data (485) [17]: 258 and 258.1 and 255.5
- Normalised anisotropy (0 nM MN551 = 1, free probe = 0) [17]: 0.8538 and 0.8338 and 0.8496
- Anisotropy [18]: 257 and 252.2 and 251.6
- Normalised anisotropy (0 nM MN551 = 1, free probe = 0) [18]: 0.8577 and 0.8084 and 0.8398
- Fb, fraction bound (MN551 260.308 nM; Cycle 4 (15 min)): 0.884 and 0.8897 and 0.9103
- Fb, fraction bound (MN551 260.308 nM; Cycle 5 (20 min)): 0.9118 and 0.8725 and 0.9048
- Fb, fraction bound (MN551 260.308 nM; Cycle 6 (25 min)): 0.8859 and 0.8781 and 0.8833
- Anisotropy data 485,520,520 [19]: 276.8 and 254.5 and 255.7
- Fb [19]: 0.921 and 0.9315 and 0.957
- Fb, fraction bound [19]: 0.8603 and 0.8614 and 0.8952
- Anisotropy [20]: 265.5 and 264.5 and 265.6
- Anisotropy data 485,520,520 [20]: 261.7 and 255.8 and 254.5
- Fb [20]: 0.9053 and 0.9116 and 1.006 and 0.8928 and 0.8606 and 0.9026
- Anisotropy [21]: 265.6 and 265.3 and 264.4
- Anisotropy data 485,520,520 [21]: 270.6 and 251.9 and 252.8
- Fb [21]: 0.9033 and 0.9261 and 0.9417 and 0.9012 and 0.8631 and 0.8867
- Anisotropy [22]: 264.9 and 261.9 and 261.5
- Anisotropy data 485,520,520 [22]: 260.9 and 250.1 and 251.9
- Fb [22]: 0.9085 and 0.9188 and 0.962 and 0.8906 and 0.8443 and 0.8627
- Anisotropy [23]: 263.7 and 259.1 and 261.9
- Anisotropy data 485,520,520 [23]: 272.8 and 249.1 and 251.5
- Fb [23]: 0.8864 and 0.8318 and 0.8857
- Fb (MN551 260.308 nM; Cycle 11 (50 min); column head blank in this cycle): 0.9094 and 0.923 and 0.9572
- Anisotropy [24]: 260.4 and 247.8 and 250.4
- Anisotropy based on Raw Data (485) [24]: 262.1 and 263.7 and 260.9
- Anisotropy [25]: 265.9 and 245.3 and 247.3
- Anisotropy based on Raw Data (485) [25]: 262.8 and 262.4 and 260.4
- Anisotropy [26]: 264.3 and 245.7 and 249.8
- Anisotropy based on Raw Data (485) [26]: 260.9 and 259.6 and 258
- Anisotropy [27]: 263.9 and 246.1 and 246.5
- Anisotropy based on Raw Data (485) [27]: 260.6 and 259.8 and 258.8
